Experimental data from PubChem BioAssay AID188 (DTP/NCI, 2004).
Values are animals surviving of animals treated; these mice carried no tumour. Survivors were counted at the toxicity check, usually on the fifth day, unless a day is given; later deaths do not show. Schedule codes are those of the source, read here as Q, the interval in days (D) or hours (H), X, the number of doses. Some doses were run more than once; the results are listed from low to high.

Tested on: CD2F1 mice, nontumored, toxicity/survival
Test: NCI In Vivo Anticancer Drug Screen. Data for tumor model Nontumored Animals (Toxicity Test) in CD2F1 (CDF1) mice

NC(=O)c1cn(C2OC(CO)C(O)C2O)c2ncnc(N)c12 (centres undefined) was tested, and the survivor count (dose: 0.06 mg/kg/injection, schedule: Q03HX024 (ip), vehicle: saline) was 8 of 8, the survivor count (dose: 0.13 mg/kg/injection, schedule: Q01DX009 (ip), vehicle: saline) was 8 of 8 and the survivor count (dose: 0.13 mg/kg/injection, schedule: Q03HX008 (ip), vehicle: saline) was 8 of 8. The survivor count (dose: 0.13 mg/kg/injection, schedule: Q03HX016 (ip), vehicle: saline) was 8 of 8, the survivor count (dose: 0.13 mg/kg/injection, schedule: Q03HX024 (ip), vehicle: saline) was 7 of 8 and 8 of 8 and the survivor count (dose: 0.25 mg/kg/injection, schedule: Q01DX009 (ip), vehicle: saline) was 8 of 8. The survivor count (dose: 0.25 mg/kg/injection, schedule: Q03HX008 (ip), vehicle: saline) was 8 of 8, the survivor count (dose: 0.25 mg/kg/injection, schedule: Q03HX016 (ip), vehicle: saline) was 8 of 8 and the survivor count (dose: 0.25 mg/kg/injection, schedule: Q03HX024 (ip), vehicle: saline) was 8 of 8. The survivor count (dose: 0.5 mg/kg/injection, schedule: Q01DX009 (ip), vehicle: saline) was 8 of 8, the survivor count (dose: 0.5 mg/kg/injection, schedule: Q03HX008 (ip), vehicle: saline) was 8 of 8 and the survivor count (dose: 0.5 mg/kg/injection, schedule: Q03HX016 (ip), vehicle: saline) was 8 of 8. The survivor count (dose: 0.5 mg/kg/injection, schedule: Q03HX024 (ip), vehicle: saline) was 6 of 8 and 8 of 8, the survivor count (dose: 0.5 mg/kg/injection, schedule: Q04DX003 (ip), vehicle: saline) was 8 of 8 and the survivor count (dose: 1.0 mg/kg/injection, schedule: Q01DX001 (ip), vehicle: saline) was 8 of 8. For the same compound, the survivor count (dose: 1.0 mg/kg/injection, schedule: Q01DX009 (ip), vehicle: saline) was 8 of 8, the survivor count (dose: 1.0 mg/kg/injection, schedule: Q01DX009 (oral), vehicle: saline) was 8 of 8 and the survivor count (dose: 1.0 mg/kg/injection, schedule: Q03HX008 (ip), vehicle: saline) was 3 of 8 and 8 of 8. The survivor count (dose: 1.0 mg/kg/injection, schedule: Q03HX016 (ip), vehicle: saline) was 4 of 8 and 8 of 8, the survivor count (dose: 1.0 mg/kg/injection, schedule: Q03HX024 (ip), vehicle: saline) was 6 of 8 and 8 of 8 and the survivor count (dose: 1.0 mg/kg/injection, schedule: Q04DX003 (ip), vehicle: saline) was 8 of 8. The survivor count (dose: 1.0 mg/kg/injection, schedule: Q08DX002 (ip), vehicle: saline) was 8 of 8, the survivor count (dose: 2.0 mg/kg/injection, schedule: Q01DX001 (ip), vehicle: saline) was 8 of 8 and the survivor count (dose: 2.0 mg/kg/injection, schedule: Q01DX001 (oral), vehicle: saline) was 8 of 8. The survivor count (dose: 2.0 mg/kg/injection, schedule: Q01DX009 (ip), vehicle: saline) was 8 of 8, the survivor count (dose: 2.0 mg/kg/injection, schedule: Q01DX009 (oral), vehicle: saline) was 8 of 8 and the survivor count (dose: 2.0 mg/kg/injection, schedule: Q03HX008 (ip), vehicle: saline) was 0 of 8 and 1 of 8. The survivor count (dose: 2.0 mg/kg/injection, schedule: Q03HX016 (ip), vehicle: saline) was 0 of 8 and 4 of 8, the survivor count (dose: 2.0 mg/kg/injection, schedule: Q04DX003 (ip), vehicle: saline) was 8 of 8 and the survivor count (dose: 2.0 mg/kg/injection, schedule: Q08DX002 (ip), vehicle: saline) was 8 of 8. For the same compound, the survivor count (dose: 4.0 mg/kg/injection, schedule: Q01DX001 (ip), vehicle: saline) was 8 of 8, the survivor count (dose: 4.0 mg/kg/injection, schedule: Q01DX001 (oral), vehicle: saline) was 8 of 8 and the survivor count (dose: 4.0 mg/kg/injection, schedule: Q01DX009 (ip), vehicle: saline) was 4 of 8. The survivor count (dose: 4.0 mg/kg/injection, schedule: Q01DX009 (oral), vehicle: saline) was 8 of 8, the survivor count (dose: 4.0 mg/kg/injection, schedule: Q04DX003 (ip), vehicle: saline) was 8 of 8 and the survivor count (dose: 4.0 mg/kg/injection, schedule: Q08DX002 (ip), vehicle: saline) was 8 of 8. For the same compound, the survivor count (dose: 8.0 mg/kg/injection, schedule: Q01DX001 (ip), vehicle: saline) was 6 of 8 and 7 of 8, the survivor count (dose: 8.0 mg/kg/injection, schedule: Q01DX001 (oral), vehicle: saline) was 8 of 8 and the survivor count (dose: 8.0 mg/kg/injection, schedule: Q01DX009 (oral), vehicle: saline) was 2 of 8. The survivor count (dose: 8.0 mg/kg/injection, schedule: Q04DX003 (ip), vehicle: saline) was 7 of 8, the survivor count (dose: 8.0 mg/kg/injection, schedule: Q08DX002 (ip), vehicle: saline) was 6 of 8 and 8 of 8 and the survivor count (dose: 16.0 mg/kg/injection, schedule: Q01DX001 (ip), vehicle: saline) was 0 of 8. The survivor count (dose: 16.0 mg/kg/injection, schedule: Q01DX001 (oral), vehicle: saline) was 5 of 8, the survivor count (dose: 16.0 mg/kg/injection, schedule: Q01DX009 (oral), vehicle: saline) was 0 of 8 and the survivor count (dose: 16.0 mg/kg/injection, schedule: Q08DX002 (ip), vehicle: saline) was 0 of 8. For the same compound, the survivor count (dose: 32.0 mg/kg/injection, schedule: Q01DX001 (oral), vehicle: saline) was 6 of 8.
For CC(=O)NC(Cc1ccc(N(CCCl)CCCl)cc1)C(=O)NC(CC(C)C)C(=O)O (centres undefined), the survivor count (dose: 8.4 mg/kg/injection, schedule: Q04DX003 (ip), vehicle: saline with Tween-80) was 8 of 8, the survivor count (dose: 12.6 mg/kg/injection, schedule: Q04DX003 (ip), vehicle: saline with Tween-80) was 8 of 8 and the survivor count (dose: 18.9 mg/kg/injection, schedule: Q04DX003 (ip), vehicle: saline with Tween-80) was 8 of 8. For the same compound, the survivor count (dose: 28.4 mg/kg/injection, schedule: Q04DX003 (ip), vehicle: saline with Tween-80) was 8 of 8, the survivor count (dose: 42.6 mg/kg/injection, schedule: Q04DX003 (ip), vehicle: saline with Tween-80) was 8 of 8 and the survivor count (dose: 64.0 mg/kg/injection, schedule: Q04DX003 (ip), vehicle: saline with Tween-80) was 8 of 8. The survivor count (dose: 96.0 mg/kg/injection, schedule: Q04DX003 (ip), vehicle: saline with Tween-80) was 8 of 8 and the survivor count (dose: 144.0 mg/kg/injection, schedule: Q04DX003 (ip), vehicle: saline with Tween-80) was 8 of 8.
